Among the data in ChEMBL document CHEMBL5376015, “Kinase inhibitor macrocycles: a perspective on limiting conformational flexibility when targeting the kinome with small molecules” (RSC Med Chem, 2024) are solubility values, retold here.

The data set in a line: physchem. The note with it: buffer, pH 7.

Some results are limits rather than exact numbers.

A word on the solubility: it is how much of the substance goes into solution per volume. Read a high solubility as much dissolved substance. Consider `Cc1cnc2nc1-c1cccc(c1)COC/C=C/COCc1cc(ccc1OCCN1CCCC1)N2`, for which the solubility was greater than 150 µg/mL.
